The full ranking holds about 33,000 sequences; the median of “E-score (-0.5 to 0.5)” is about -0.0014, and the highest 2% start at about 0.25. This is one part of the list.
biological target: T1, Cad1 (UniProt P24813); assay: PBM E-score (8-mer binding enrichment) (E-score (-0.5 to 0.5)); higher = stronger / more preferred TF binding; settings: protein concentration: 100 nM; construct: GST-full length
T1 sequence: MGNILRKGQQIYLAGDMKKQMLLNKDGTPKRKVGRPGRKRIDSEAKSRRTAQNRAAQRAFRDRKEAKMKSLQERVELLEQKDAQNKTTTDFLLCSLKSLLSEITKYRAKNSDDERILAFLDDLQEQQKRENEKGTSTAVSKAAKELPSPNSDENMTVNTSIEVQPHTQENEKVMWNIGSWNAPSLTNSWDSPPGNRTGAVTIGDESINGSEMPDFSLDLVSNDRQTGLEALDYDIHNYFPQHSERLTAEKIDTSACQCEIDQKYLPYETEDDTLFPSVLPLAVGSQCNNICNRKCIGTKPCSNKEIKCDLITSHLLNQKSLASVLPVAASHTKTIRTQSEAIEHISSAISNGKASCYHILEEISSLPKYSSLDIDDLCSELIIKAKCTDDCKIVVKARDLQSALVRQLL
Outline: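 Each ungapped eight-base word and its reverse complement, pooled, received an E-score from the Universal PBM Analysis Suite. Underlying scans, normalised with masliner, recorded fluorescent anti-GST bound to GST-tagged yeast transcription factors. These were applied at about 100-200 nM to universal all-10-mer Agilent arrays double-stranded by primer extension.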

Sequence	PBM E-score
GGTGCTAC	-0.16
CCGGATTA	0.16
AGCGGACC	-0.113
GATTAGAC	-0.0403
GCACATGC	-0.00748
GAGTAAGC	0.167
ATACTCAC	-0.111
ATGAGGGG	-0.15
CGTACATC	-0.0994
ACCCGCAT	-0.0504
ATTTTGTG	0.111
GGCGTCAA	0.0892
CCACAGCG	0.0303
GCCCGCCA	-0.0928
CAGCTTAG	0.0843
ATTTGCAC	0.0893
CTGTCGCA	-0.192
ATAACGGC	0.131
ACCAGAAT	-0.0108
ATTGCTTA	0.176
ACACATCG	0.0172
CATAAACG	0.0558
GTAGCTTA	0.235
CATCCTCC	-0.313
AGAACTTG	0.157

Sequence	PBM E-score
AATGGCTG	-0.0676
CGCGGCCA	-0.0454
CCGCATTC	0.0508
ACCACTCA	-0.0789
CCTCGCCC	0.0207
CAACCCTA	-0.0439
ATAGTCGC	0.00692
CGTGGCTC	-0.351
ATGTGAGA	0.0169
ATTACTCG	0.221
ATACTGTG	-0.0583
ATCATTAC	0.206
CTTCTATC	-0.0429
CCGGCCTA	-0.128
AAGCCAGC	0.0299
CAGCACAA	0.128
GTTGATTA	0.228
CTAATCAG	0.227
ACGGGGCT	-0.188
GAGGTAAC	-0.0332
CCGCCATC	-0.0295
TATCTACA	0.173
ACAAGAAC	0.251
CGCCCAAA	0.062
CAACCCGC	0.0759

Some of the entries above, reformatted:
Sequence | PBM E-score
GATTAGAC | -0.0403
GCACATGC | -0.00748
GAGTAAGC | 0.167
ATACTCAC | -0.111
ATGAGGGG | -0.15
CGTACATC | -0.0994
ACCCGCAT | -0.0504
ATTTTGTG | 0.111
GGCGTCAA | 0.0892
CCACAGCG | 0.0303
GCCCGCCA | -0.0928
CAGCTTAG | 0.0843
ATTTGCAC | 0.0893
CTGTCGCA | -0.192
ATAACGGC | 0.131
ACCAGAAT | -0.0108
ATTGCTTA | 0.176
ACACATCG | 0.0172
CATAAACG | 0.0558
GTAGCTTA | 0.235
CATCCTCC | -0.313
AGAACTTG | 0.157
AATGGCTG | -0.0676
CGCGGCCA | -0.0454
CCGCATTC | 0.0508
ACCACTCA | -0.0789
CCTCGCCC | 0.0207
CAACCCTA | -0.0439
ATAGTCGC | 0.00692
CGTGGCTC | -0.351
ATGTGAGA | 0.0169
ATTACTCG | 0.221
ATACTGTG | -0.0583
ATCATTAC | 0.206
CTTCTATC | -0.0429
CCGGCCTA | -0.128
AAGCCAGC | 0.0299

The listing continues.

Sequence	PBM E-score
AACGACGC	-0.0374
ACTCTCCA	-0.0537
ATCCCTTC	-0.138
GCCAGTGA	-0.112
CGCTGAAC	0.0859
AACGCCTG	0.0294
CACTTACG	0.0325
ACAATATG	0.193
CCATAAAA	0.0981
ACATCACC	-0.108
TCACAGAA	0.0412
GACAGCCA	0.012
CTTGAACC	0.0288
AATATATT	0.322
ACAAAATA	0.145
ACTCTAAC	-0.0544
GATGAATC	0.149
CGTGTAGC	-0.00953
CCGAACAG	0.0286
CTCGCGGC	0.0515
AGCCGCCC	-0.0349
CTATACTC	-0.084
AGTGAGTG	0.0185
CGATTCCC	0.0953
AATTCTTG	0.108

Sequence	PBM E-score
AGTCGCAC	-0.27
AACCCGAT	0.115
CAGGGTAC	-0.0335
CAGCCGGC	0.132
CCTGACCC	-0.152
CAGCGCTA	0.157
TACGGTAA	0.158
CTAACCAA	0.0815
GGGAGTGA	-0.00669
AGAAGGCT	-0.299
ATAAAGTC	-0.0142
AGGTTATA	0.0216
CCTCGAAG	-0.0407
ATACTGAT	0.238
GCTGAACA	0.068
CCGTAGTA	-0.0697
GGCTTCAA	-0.139
AGCTTTGA	0.0761
CGGAAGTC	0.052
ACCCGGCC	-0.195
AAAGAGTA	-0.122
CTTTGTGA	-0.0554
CCTTCTCA	-0.109
AGGCAACG	0.0208
GATTGGTA	0.196

Sequence	PBM E-score
CCTGAAAG	0.0786
GACCACAC	-0.0773
GACCCCTC	-0.237
GGCCCTAC	-0.191
GCGCGCGC	0.417
AGGGTGTA	-0.0858
AGGCTACT	-0.196
GATTCACC	-0.0618
GTCGACCA	0.0522
AGCGCACC	0.0352
ACGGTCGC	-0.0822
AATGTGAT	0.127
GTCATGAA	0.0483
AAGATCGA	0.144
CTCGTCCA	0.072
ATGTCGAC	0.276
GCCTCGCC	-0.183
AAATGAGG	-0.0935
ACCTTTAA	-0.0262
GTATATAC	-0.0771
AAACTCCG	0.174
CATTAAGC	0.0681
CTGTCATC	0.135
TCGACGCA	0.0318
GTAGTCAA	0.0209

Sequence	PBM E-score
AAGTATGA	-0.00011
AAGTGTTC	0.16
CGGGAACC	-0.101
GTGTAACA	-0.0208
TCGTAAGA	-0.109
AAGAGAAT	0.0911
ATTGCTAC	0.0731
CCGAACAC	0.103
ACAAGGTA	0.0279
AGTTAAAA	0.14
GCCCCTAC	-0.135
GGATAGCC	0.0232
AATAGCGC	0.269
CTCCAGCA	-0.186
ATGACCAA	0.142
CTCTGAGC	-0.0187
AAAGGACC	-0.287
AACACTCG	0.16
GGTCCACA	-0.144
CTACTGGC	-0.187
CTGGCCCC	-0.192
ACGACACG	0.133
GTAACCCA	0.0628
AGACTTAG	-0.119
TATCCCAA	-0.0435

Sequence	PBM E-score
ACGTTACG	0.094
TACATTGA	0.0651
TATGAGGA	-0.0778
AGTTCGGC	-0.117
ACTAAGAA	0.0946
AGGAACAA	0.00382
ACGCTTAC	0.126
ACGAGTCC	-0.109
GGCCATAC	0.0542
GGACCAAA	0.0062
CCCACTCA	-0.193
CATCGTAG	-0.127
CCTAGTTA	0.0353
AGGTATCA	-0.164
ATCTATCC	0.0363
CATATCAC	0.0366
ATTGTAGC	0.00903
AAACCCCG	-0.0769
GATTACTA	0.392
CCGTACTA	0.0809
ACGAGCAT	-0.149
GCGGGCTA	0.0128
